The campaign covered roughly 1,200 compounds. Fewer than 10 were called active. Calls follow the shape of the dose curve; as a rule, active = well fitted curve in the direction sought with a large enough effect; inconclusive = small, poorly fitted or top-dose-only effect, or another doubt; inactive = no such curve, though single readings can be large or run the other way. Some of the results follow.
Test: Confirmatory qHTS assay for inhibitors of Activation Induced Cytidine Deaminase (AID): UDG signals; also: 0% is about no effect
Settings: UDG coupled enzyme activity counter-screen; at 115 µM (top of the series) unless noted
Procedure, shortened: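 UDG readout, a counterscreen: AID (1 uM, 4/3x) plus UDG (2 U/mL, 4/3x) preincubated 10 min with compound (7.32 nM - 114 uM final), then 4 h with DJC20/DJC23 substrates at room temperature; NaOH added, fluorescence read at 560/665 nm.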

| Structure (SMILES) | activity change, negative = inhibition |
| --- | --- |
| COc1ccc(CNC(=O)Nc2ccc3c(c2)N(C)C(=O)c2ccccc2S3)cc1OC | inactive: 1.85% |
| Cc1ccc(CNC(=O)c2c[nH]n3c(=O)c(Cc4ccc(Cl)cc4)c(C)nc23)cc1 | inactive: -6.36% |
| CC(=O)c1cccc(NC(=O)CC(c2ccc(C)cc2)N2Cc3ccccc3C2=O)c1 (stereo not drawn) | inactive: 11.1% |
| CCOc1ccc(-c2cc(C(=O)NCc3ccccc3Cl)c3ccccc3n2)cc1 | inactive: -1.32% |
| CCn1cc2c(n1)-c1c(oc(C(=O)Nc3cccc(C)c3C)c1C)CC2 | inactive: 1.8% |
| Cc1ccc(OCC(=O)Nc2cccc(OCc3cc(=O)n4cccc(C)c4n3)c2)cc1C | inactive: -13.9% |
| CCc1ccc(CN(Cc2ccco2)c2cnc(S(C)(=O)=O)nc2C(=O)Nc2ccc(C)c(Cl)c2)cc1 | inactive: -3.03% |
| COc1ccc(-c2nc3ccccc3n2Cc2ccc(C(C)C)cc2)cc1 | inactive: -2.72% |
| CCOc1cc(CNCCSc2nnnn2C)ccc1OCc1ccc(Cl)cc1Cl | inactive: -11% |
| CCCCN(C)CC(O)Cn1cc(/C=C/C(=O)c2ccc(OC)c(OC)c2)c2ccccc21 (stereo not drawn) | inactive: -8.09% |
| Cc1ccc(Cl)cc1N1CCN(C(=O)c2cccn2-c2nnc(N3CCCCC3)s2)CC1 | inactive: -3.12% |
| COc1ccccc1OCCn1c(C(C)Oc2ccccc2)nc2ccccc21 (stereo not drawn) | inactive: -7.15% |
| Cc1cccc(-c2nnc(SCC(=O)N3CCCc4ccccc43)o2)c1 | inactive: -1.78% |
| CC(=O)c1ccc(C(=O)N(Cc2cccnc2)c2nc3c(Cl)cccc3s2)cc1 | inactive: -1.39% |
| O=C(c1cccc(Cl)c1)N(Cc1ccco1)Cc1ccccc1Cl | inactive: -2.38% |
| O=C(O)c1ccc(Nc2nc(-c3ccccc3)c3cc(Br)ccc3n2)cc1 | inactive: 1.94% |
| O=C(NCCn1cc(SCc2cccc(F)c2)c2ccccc21)c1cccc(C(F)(F)F)c1 | inactive: -8.72% |
| Cc1ccc(N(Cc2cccs2)C(=O)c2ccccc2)cc1 | inactive: -1.63% |
| Cc1cccc(Cn2c(SCc3ccc(C(=O)N4CCC(C)CC4)cc3)nc3ccncc32)c1 | inactive: -6.12% |
| COc1cccc(CNC(=O)c2oc3ccc4c(c3c2C)C(=O)CC(C)(C)O4)c1OC | inactive: 0.26% |
| CCOc1ccc(-c2nn(-c3ccccc3)cc2C2NC(=O)NC(C)=C2C(=O)OC(C)C)cc1C (stereo not drawn) | inactive: -9.9% |
| COc1ccc(NC(=O)C(c2ccc(C)cc2)N(C)C(=O)Cc2cccs2)cc1 (stereo not drawn) | inactive: -6.34% |
| CC(C)c1ccc(S(=O)(=O)c2cnc(SCC(=O)Nc3cccc(C(F)(F)F)c3)nc2N)cc1 | inactive: -15.2% |
| CCOc1ccc(NC(=O)CSc2nccn2-c2cccc(C)c2C)cc1 | inactive: -4.02% |
| Cc1ccc(Nc2nnc(-c3ccc(C)c(S(=O)(=O)N4CCN(C)CC4)c3)c3ccccc23)c(C)c1 | inactive: -0.466% |
| Cc1ccc2nc(Cl)c3cc(C(=O)N4CCCC(C)C4)sc3c2c1 (stereo not drawn) | inactive: 4.71% |
| COc1cccc(CNC(=O)c2ccc3c(Cl)c4c(nc3c2)CCCC4)c1 | inactive: -1.88% |

| Structure (SMILES) | activity change, negative = inhibition |
| --- | --- |
| Cc1cccc(N2CCN(C(=O)C3CCCN(C(=O)c4cc5sccc5n4C)C3)CC2)c1C (stereo not drawn) | inactive: -8.06% |
| CCC1CCCCN1C(=O)CSc1nc(-c2ccc(OC)cc2)cc(C(F)(F)F)n1 (stereo not drawn) | inactive: -16.9% |
| Cc1cc2c(cc3c(SCc4ccc(Cl)cc4)nnc(C)n32)o1 | inactive: -0.784% |
| CN(C(=O)c1ccc2c(c1)N(Cc1ccccc1F)C(=O)c1ccccc1S2)C1CCCCC1 | inactive: -1.84% |
| CCc1ccc(OCC(=O)N(Cc2ccco2)Cc2ccco2)cc1 | inactive: -2.86% |
| Cc1ccc(C)c(CN2CCCN(Cc3cc(C)ccc3C)S2(=O)=O)c1 | inactive: -1.61% |
| CCc1ccc(NC(=O)CSc2nc(-c3ccccc3)c(C#N)c(=O)[nH]2)cc1 | inactive: 7.28% |
| CC(C)c1ccc2c(c1)-c1ccccc1S(=O)(=O)N2CC(=O)N1CCCCC1 | inactive: -4.79% |
| Cc1c(Cl)cccc1-n1ncc(C(=O)NCc2cccs2)c1C1CCN(C(=O)OC(C)(C)C)CC1 | inactive: -10.8% |
| Cc1cccc(-c2nc(CSCC(=O)NCCc3ccc(Cl)cc3)c(C)o2)c1 | inactive: -5.42% |
| COc1ccc(-n2c(-c3ccc(C)cc3)cc3c2CC(C)(C)CC3=O)c(OC)c1 | inactive: -11% |
| CCn1cc2nc(SCc3cccc(C(F)(F)F)c3)n(Cc3ccc(Cl)cc3)c(=O)c2n1 | inactive: -9.07% |
| Cc1ccc(C)c(N2CCN(C(=O)c3cnn(C(C)(C)C)c3C3CCN(C(=O)OC(C)(C)C)CC3)CC2)c1 | inactive: -6.07% |
| CCOc1cccc2sc(N3CCN(C(=O)c4ccc5c(c4)CCCC5)CC3)nc12 | inactive: -12.5% |
| CCN(CC)C(=O)c1ccc2c(c1)N(Cc1c(F)cccc1Cl)C(=O)c1ccccc1S2 | inactive: 0.172% |
| COc1cccc(Cc2nc3ccccc3nc2SCC(=O)N2CCCCC2C)c1 (stereo not drawn) | inactive: -2.1% |
| O=C(O)c1c(-c2ccccc2)oc2ccc(OCc3c(F)cccc3Cl)cc12 | inactive: -5.79% |
| COc1ccc(C(=O)N2CCc3cc(OC)c(OC)cc3C2COc2ccccc2OC)cc1 (stereo not drawn) | inactive: -10.4% |
| CCN(CC)C(=O)CSc1nc(-c2ccc(C)cc2)nc2c1Cc1c(CO)cnc(C)c1O2 | inactive: 4.35% |
| Cc1ccc(CN(Cc2ccco2)C(=O)COc2ccc(C)c(C)c2)cc1 | inactive: -3.6% |
| Cc1ccc(NC(=O)c2ccc3c(O)c(S(=O)(=O)c4ccccc4)c(=O)[nH]c3c2)cc1Cl | inactive: 5.47% |
| CN(C)c1ccc(Nc2ncnc3sc4c(c23)CCCC4)cc1 | inactive: 0.0322% |
| Cc1ccc2[nH]c(=O)c3cc(C(=O)NCCCN4CCC(C)CC4)sc3c2c1 | inactive: -6.06% |
| Cc1ccc(C)c(CSc2nnc(C)n3c2cc2sccc23)c1 | inactive: -4.76% |
| Cc1ccc(C)c(N2CCN(CCCNC(=O)c3cnn(-c4ccc(F)cc4)c3C3CCN(C(=O)OC(C)(C)C)CC3)CC2)c1 | inactive: -1.84% |
| OCC1O[C@H]([S-])[C@H](O)[C@@H](O)[C@@H]1O.[Au+] (stereo partly drawn) | inactive: 3.35% |

A draw from above in order of formula weight, ascending.

| Structure (SMILES) | activity change, negative = inhibition |
| --- | --- |
| CCc1ccc(NC(=O)CSc2nc(-c3ccccc3)c(C#N)c(=O)[nH]2)cc1 | inactive: 7.28% |
| COc1ccc(C(=O)N2CCc3cc(OC)c(OC)cc3C2COc2ccccc2OC)cc1 (stereo not drawn) | inactive: -10.4% |
| CCN(CC)C(=O)CSc1nc(-c2ccc(C)cc2)nc2c1Cc1c(CO)cnc(C)c1O2 | inactive: 4.35% |

From PubChem BioAssay AID1347431 (National Center for Advancing Translational Sciences (NCATS), 2020)
